These are yes or no findings as the source states them, for the method shown. For some of these results: Binding seen in cells or lysates may run through a third protein. Some binding calls cover weakened binding; strength is not graded here. For some of these results: Sequences can lack the tags named with a protein.

By UniProt entry, the sequences of proteins in these tests, tags left out. Residues count along the entry.
UniProt Q07021, residues 74-282: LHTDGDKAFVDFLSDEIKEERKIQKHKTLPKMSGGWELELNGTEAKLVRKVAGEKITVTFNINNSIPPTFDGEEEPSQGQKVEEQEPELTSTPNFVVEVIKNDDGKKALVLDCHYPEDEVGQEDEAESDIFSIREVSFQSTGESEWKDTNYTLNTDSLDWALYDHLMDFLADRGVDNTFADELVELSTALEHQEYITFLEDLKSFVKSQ

For test [1], the target named is FLAG-tagged MIER1 ELM2-SANT (aa:171–350) (UniProt Q8N108). The experiment in a line: SEC-MALS; gel filtrated pure MIER1(aa:171–350):HDAC1 complex (co-expressed) reapplied to a Superdex S200 column with refractive index and MALS detectors; both purified.
Test [2] concerns the target T1, FLAG-tagged MIER1(aa:171–512) (UniProt Q8N108).
T1 sequence: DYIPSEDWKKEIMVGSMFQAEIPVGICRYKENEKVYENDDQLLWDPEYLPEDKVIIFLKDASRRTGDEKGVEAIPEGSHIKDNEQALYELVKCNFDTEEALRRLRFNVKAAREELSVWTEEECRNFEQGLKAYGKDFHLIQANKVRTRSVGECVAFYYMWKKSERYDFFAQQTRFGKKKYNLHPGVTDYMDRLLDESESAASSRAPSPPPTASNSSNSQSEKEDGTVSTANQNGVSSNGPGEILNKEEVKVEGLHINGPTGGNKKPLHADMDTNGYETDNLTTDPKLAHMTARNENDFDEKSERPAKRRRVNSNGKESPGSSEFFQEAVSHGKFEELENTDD
Description: co-IP; FLAG-tagged bait transfected in HEK293F; purification on anti-FLAG resin, SDS-PAGE (Coomassie) or western blot with anti-C1QBP; a gel filtration step is not told for these panels (Figures 2B-D, 4C, 5C). (Immunoblotting shows a protein as a band on a membrane.)

The target of test [3] is T1, FLAG-tagged MIER1(aa:171–512). Description: co-IP + SEC; FLAG-tagged bait transfected in HEK293F (with untagged partners where stated); lysate on anti-FLAG M2 resin, washed in 50 mM Tris/HCl pH 7.5, 50 mM potassium acetate, eluted by TEV protease, then Superdex S200 gel filtration; fractions on SDS-PAGE, bands identified by mass spectrometry. For orientation: Size exclusion chromatography separates by hydrodynamic size, large species first.

In test [4] the target is Full length FLAG tagged MIER1(aa:1–512) (UniProt Q8N108). Described as above.

For the substance “FLAG-tagged MIER1 ELM2-SANT (aa:171–350) (from UniProt Q8N108 171-350) (domain or fragment)”, the binding result in test [1] is given as “no binding”.
In the case of “endogenous C1QBP (mature form) (from UniProt Q07021 74-282)”, the binding entry in test [2], in test [3] and in test [4] was “binds” throughout.

The values above are taken from PMC10325919.
